Experimental data: PubChem BioAssay AID1053208 (Peter MacCallum Cancer Centre, 2014)

Aim: 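Genes whose silencing cuts survival of bone tumour cells only with doxorubicin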 (primary screen)
System: mouse osteosarcoma cells, early-passage culture from an engineered mouse model of fibroblastic bone tumour
Knock-down reagent: siRNA pool against mouse genes, 40 nM
Time to read-out: about 120 h (48 h before drug, then 72 h with drug)
Challenge: doxorubicin 100 nM for 72 h, roughly 30-40% inhibitory dose
Read-out: 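Luminescent ATP signal taken as viability with or without 100 nM doxorubicin for 72 h; mean of two wells set against non-targeting siRNA and turned into robust z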
Reading the numbers: viability z-score with doxorubicin and doxorubicin viability vs non-targeting: higher = more viable cells under doxorubicin; viability z-score without drug: higher = more viable cells with knock-down alone; z-score of drug to no-drug ratio: higher = less drug sensitisation by knock-down
Rule for the call: 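a pool counts as active when its viability z-score with doxorubicin is -2 or below and its z-score without drug lies between -2 and 2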
Shown is one part, drawn at random, of about 17,000 reagents. 788 of them (4.7%) were called active. 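Calls rest on z-score classes alone; an extra cut-off of viability at most 70% of control was not applied to them.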 Reagents against one gene are numbered here. Some reagents were tested in more than one well and are listed for each.

| gene symbol | reagent | combined z-score class | viability z-score with doxorubicin | viability z-score without drug | z-score of drug to no-drug ratio | doxorubicin viability vs non-targeting | Outcome |
| --- | --- | --- | --- | --- | --- | --- | --- |
| Ptprs (protein tyrosine phosphatase receptor type S) | 1 | no change with or without drug | -0.45 | -1.52 | 0.79 | 0.9 | inactive |
| B3gat1 (beta-1,3-glucuronyltransferase 1) | 1 | no change with or without drug | 0.56 | 0.51 | 0.34 | 0.99 | inactive |
| Hibch (3-hydroxyisobutyryl-Coenzyme A hydrolase) | 1 | no change with or without drug | 1.24 | 0.51 | 1.01 | 1.05 | inactive |
| Actn2 (actinin alpha 2) | 1 | no change with or without drug | -0.45 | 0.17 | -0.45 | 0.9 | inactive |
| Tmem135 (transmembrane protein 135) | 1 | no change with or without drug | -0.22 | -0.51 | 0.22 | 0.92 | inactive |
| Guca2b (guanylate cyclase activator 2b) | 1 | no change with or without drug | 0.67 | -0.17 | 0.9 | 1 | inactive |
| Vwa7 (von Willebrand factor A domain containing 7) | 1 | no change with or without drug | 0.56 | 1.18 | -0.11 | 0.99 | inactive |
| Rbm19 (RNA binding motif protein 19) | 1 | no change with or without drug | 0.22 | 0.17 | 0.22 | 0.96 | inactive |
| Pfkm (phosphofructokinase, muscle) | 1 | no change with or without drug | 0.45 | -0.67 | 1.12 | 0.98 | inactive |
| Mapk12 (mitogen-activated protein kinase 12) | 1 | high cell count without drug only | 1.35 | 2.02 | 0.11 | 1.06 | inactive |
| Scyl3 (SCY1-like 3 (S. cerevisiae)) | 1 | no change with or without drug | -0.22 | -0.84 | 0.45 | 0.92 | inactive |
| Scyl3 (SCY1-like 3 (S. cerevisiae)) | 1 | low cell count with doxorubicin only | -2.7 | -1.52 | -1.91 | 0.7 | active |
| Armc8 (armadillo repeat containing 8) | 1 | high cell count without drug only | -0.79 | 2.53 | -2.14 | 0.87 | inactive |
| Arhgap8 (Rho GTPase activating protein 8) | 1 | no change with or without drug | 1.91 | 0.34 | 1.8 | 1.11 | inactive |
| C630007C17RIK | 1 | no change with or without drug | 0.9 | 0.84 | 0.45 | 1.02 | inactive |
| Tbpl2 (TATA box binding protein like 2) | 1 | no change with or without drug | -0.9 | -1.18 | 0 | 0.86 | inactive |
| Brinp2 | 1 | no change with or without drug | 1.57 | 1.85 | 0.45 | 1.08 | inactive |
| Pclo (piccolo (presynaptic cytomatrix protein)) | 1 | no change with or without drug | -1.46 | 0.84 | -1.91 | 0.81 | inactive |
| Spata2l (spermatogenesis associated 2-like) | 1 | no change with or without drug | 0.56 | 0 | 0.67 | 0.99 | inactive |
| Or2w2 (olfactory receptor family 2 subfamily W member 2) | 1 | no change with or without drug | 1.69 | 1.01 | 1.12 | 1.09 | inactive |
| Ppp1r14a (protein phosphatase 1, regulatory inhibitor subunit 14A) | 1 | no change with or without drug | 0.9 | 0.51 | 0.67 | 1.02 | inactive |
| Or5b122 (olfactory receptor family 5 subfamily B member 122) | 1 | no change with or without drug | 0.45 | -0.51 | 1.01 | 0.98 | inactive |
| Psme2 | 1 | no change with or without drug | 0.9 | 0.84 | 0.45 | 1.02 | inactive |
| Epyc (epiphycan) | 1 | no change with or without drug | 0 | 1.85 | -1.01 | 0.94 | inactive |
| Dhx9 (DExH-box helicase 9) | 1 | no change with or without drug | 1.12 | 0.67 | 0.79 | 1.04 | inactive |
| Kif26b (kinesin family member 26B) | 1 | no change with or without drug | -1.46 | 0.51 | -1.69 | 0.81 | inactive |
| Kif26b (kinesin family member 26B) | 2 | no change with or without drug | -1.35 | -1.01 | -0.67 | 0.82 | inactive |
| Dapk3 (death-associated protein kinase 3) | 1 | no change with or without drug | 0.45 | -0.17 | 0.67 | 0.98 | inactive |
| 4930474N05Rik (RIKEN cDNA 4930474N05 gene) | 1 | high cell count without drug only | 0 | 2.19 | -1.24 | 0.94 | inactive |
| Caln1 (calneuron 1) | 1 | no change with or without drug | 0.67 | -0.17 | 0.9 | 1 | inactive |
| Hyal5 (hyaluronoglucosaminidase 5) | 1 | no change with or without drug | -0.67 | -0.51 | -0.22 | 0.88 | inactive |
| Ces1c (carboxylesterase 1C) | 1 | no change with or without drug | 0.67 | 1.01 | 0.11 | 1 | inactive |
| Pogz (pogo transposable element with ZNF domain) | 1 | no change with or without drug | 1.8 | 0.34 | 1.69 | 1.1 | inactive |
| Zmym2 (zinc finger, MYM-type 2) | 1 | no change with or without drug | 0.22 | -0.17 | 0.45 | 0.96 | inactive |
| Cpe (carboxypeptidase E) | 1 | no change with or without drug | -0.11 | -0.17 | 0.11 | 0.93 | inactive |
| Klrd1 (killer cell lectin-like receptor, subfamily D, member 1) | 1 | high cell count without drug only | 0.67 | 2.87 | -1.01 | 1 | inactive |
| H3c8 (H3 clustered histone 8) | 1 | no change with or without drug | 1.24 | 0.51 | 1.01 | 1.05 | inactive |
| Grm4 (glutamate receptor, metabotropic 4) | 1 | no change with or without drug | 0.56 | 1.01 | 0 | 0.99 | inactive |
| Cldn11 (claudin 11) | 1 | no change with or without drug | 0.9 | -0.17 | 1.24 | 1.02 | inactive |
| Omg (oligodendrocyte myelin glycoprotein) | 1 | no change with or without drug | -0.45 | 0.34 | -0.56 | 0.9 | inactive |
| Otub2 (OTU domain, ubiquitin aldehyde binding 2) | 1 | no change with or without drug | 0 | 0.51 | -0.22 | 0.94 | inactive |
| Or5p79 (olfactory receptor family 5 subfamily P member 79) | 1 | no change with or without drug | -0.34 | 0 | -0.22 | 0.91 | inactive |
| Zfp282 (zinc finger protein 282) | 1 | no change with or without drug | 1.12 | 0.51 | 0.9 | 1.04 | inactive |
| Or5bh3 (olfactory receptor family 5 subfamily BH member 3) | 1 | no change with or without drug | -0.34 | 0.17 | -0.34 | 0.91 | inactive |
| Syt15 (synaptotagmin XV) | 1 | no change with or without drug | -0.79 | 0.17 | -0.79 | 0.87 | inactive |
| Ctnnd2 (catenin delta 2) | 1 | no change with or without drug | 1.35 | 0.17 | 1.35 | 1.06 | inactive |
| Vangl1 (VANGL planar cell polarity 1) | 1 | no change with or without drug | -0.9 | 0.51 | -1.12 | 0.86 | inactive |
| Ankrd10 (ankyrin repeat domain 10) | 1 | no change with or without drug | 0.22 | 0.84 | -0.22 | 0.96 | inactive |
| 5330439M10Rik (RIKEN cDNA 5330439M10 gene) | 1 | high cell count with doxorubicin only | 2.47 | 1.85 | 1.24 | 1.16 | inactive |
| OSBP2 | 1 | low cell count with and without drug | -2.02 | -2.36 | -0.45 | 0.76 | inactive |

Individual results from above:
Syt15 (synaptotagmin XV), combined z-score class = no change with or without drug
Value of Pfkm (phosphofructokinase, muscle) under “doxorubicin viability vs non-targeting”: 0.98
Under “viability z-score without drug”, Psme2 shows 0.84
Cpe (carboxypeptidase E), Outcome = inactive
For “doxorubicin viability vs non-targeting”, Epyc (epiphycan) shows 0.94
